Results are given in words; binding and its absence hold for the method and conditions named. In cells and extracts the contact can be indirect. Some binding calls cover weakened binding; strength is not graded here. Where a sequence is shown, tags or fusion partners need not be part of it.

The test addresses T1, V5-tagged IFNLR1-WT (UniProt Q8IU57).
T1 sequence: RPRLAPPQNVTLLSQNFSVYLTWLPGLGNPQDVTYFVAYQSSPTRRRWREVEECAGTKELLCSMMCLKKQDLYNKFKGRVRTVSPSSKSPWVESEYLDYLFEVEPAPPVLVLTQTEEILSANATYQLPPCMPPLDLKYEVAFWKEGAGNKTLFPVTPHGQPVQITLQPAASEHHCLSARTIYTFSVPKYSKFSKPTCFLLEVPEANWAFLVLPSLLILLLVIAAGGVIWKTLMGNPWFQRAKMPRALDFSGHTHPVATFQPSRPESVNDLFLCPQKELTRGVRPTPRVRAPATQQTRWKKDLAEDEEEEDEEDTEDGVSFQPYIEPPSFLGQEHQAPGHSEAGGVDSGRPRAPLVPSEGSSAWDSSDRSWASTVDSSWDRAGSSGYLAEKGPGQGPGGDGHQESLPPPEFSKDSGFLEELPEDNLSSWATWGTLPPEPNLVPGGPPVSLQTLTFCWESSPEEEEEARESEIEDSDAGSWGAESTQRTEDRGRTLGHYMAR
The test is described as follows: co-IP; HEK-293T cotransfected 48 h, MG-132 (20 uM) and leupeptin (100 uM) 2 h, lysate precipitated with V5 antibody and protein A/G magnetic beads, FLAG immunoblot.

B1: FLAG-tagged FBXO45 (protein, UniProt P0C2W1 1-286)
chain: MAAPAPGAGAASGGAGCSGGGAGAGAGSGSGAAGAGGRLPSRVLELVFSYLELSELRSCALVCKHWYRCLHGDENSEVWRSLCARSLAEEALRTDILCNLPSYKAKIRAFQHAFSTNDCSRNVYIKKNGFTLHRNPIAQSTDGARTKIGFSEGRHAWEVWWEGPLGTVAVIGIATKRAPMQCQGYVALLGSDDQSWGWNLVDNNLLHNGEVNGSFPQCNNAPKYQIGERIRVILDMEDKTLAFERGYEFLGVAFRGLPKVCLYPAVSAVYGNTEVTLVYLGKPLDG
In the case of B1, the binding entry is listed as “binds”.

Source of the values: PMC9747586.
